Values from PubChem BioAssay AID1259308 (NCATS, 2017)
Here is one part, drawn at random, of about 59,000 deposited reagents. Of all reagents, about 1,510 (2.6%) got an active call. 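Calls use total luciferase alone and ignore viability, so some active siRNAs may act by altering cell number.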 Unmarked entries are inactive. Reagents against one gene are numbered here. Further read-outs or replicates are left out here.

- Test: 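Genes whose loss raises luciferase production in HEK293 cells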 (primary screen)
- Cell system: human HEK293 embryonic kidney cells stably expressing firefly luciferase (HEK-CMV-Luc2-Hygro)
- Knock-down reagent: single siRNA against human genes, 0.8 pmol siRNA per well
- Timing: 72 h
- Detection: 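Reporter luminescence and viable-cell signal on separate replicate plates, given as percent of non-targeting control and median/MAD z-scores, plus per-cell luciferase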
- Scale: total luciferase, z-score: higher = more reporter protein produced
- Rule for the call: 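Active when the median/MAD z-score for overall luciferase is greater than 3; a gene was taken forward for validation with new siRNAs if at least two of its three siRNAs passed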
- Meaning of the calls: active = raised luciferase; inactive = no rise

What did the screen give for DIS3L (DIS3 like exosome 3'-5' exoribonuclease) #1?
total luciferase, z-score: 2.32

What did the screen give for DIS3L (DIS3 like exosome 3'-5' exoribonuclease) #2?
total luciferase, z-score: 0.144

What is on record for DIS3L (DIS3 like exosome 3'-5' exoribonuclease) #3?
total luciferase, z-score: 0.592

With IGBP1C (IGBP1 family member C) #1, what was measured?
total luciferase, z-score: 0.581

With IGBP1C (IGBP1 family member C) #2, what does the deposit list?
total luciferase, z-score: 2.25

What is on record for IGBP1C (IGBP1 family member C) #3?
total luciferase, z-score: -1.01

What did the screen give for HCLS1 (hematopoietic cell-specific Lyn substrate 1) #1?
total luciferase, z-score: 1.58

What is on record for HCLS1 (hematopoietic cell-specific Lyn substrate 1) #2?
total luciferase, z-score: -0.683

For HCLS1 (hematopoietic cell-specific Lyn substrate 1) #3, what does the deposit list?
total luciferase, z-score: -0.232

What did the screen give for ID1 (inhibitor of DNA binding 1) #1?
total luciferase, z-score: 0.64

What did the screen give for ID1 (inhibitor of DNA binding 1) #2?
total luciferase, z-score: 0.099

What did the screen give for ID1 (inhibitor of DNA binding 1) #3?
total luciferase, z-score: 1.19

For FGF13 (fibroblast growth factor 13) #1, what does the deposit list?
total luciferase, z-score: 2.25

What did the screen give for FGF13 (fibroblast growth factor 13) #2?
total luciferase, z-score: 2.88

For FGF13 (fibroblast growth factor 13) #3, what does the deposit list?
total luciferase, z-score: -1.26

What is on record for FGF13 (fibroblast growth factor 13) #4?
total luciferase, z-score: 0.159

With FGF13 (fibroblast growth factor 13) #5, what does the deposit list?
total luciferase, z-score: -0.0712

What is on record for FGF13 (fibroblast growth factor 13) #6?
total luciferase, z-score: 1.71

With C20orf96 (chromosome 20 open reading frame 96) #1, what was measured?
total luciferase, z-score: 0.738

How did the screen score C20orf96 (chromosome 20 open reading frame 96) #2?
total luciferase, z-score: -0.472

With C20orf96 (chromosome 20 open reading frame 96) #3, what was measured?
total luciferase, z-score: -0.319

Which result is listed for PI16 (peptidase inhibitor 16) #1?
total luciferase, z-score: -0.304

What did the screen give for PI16 (peptidase inhibitor 16) #2?
total luciferase, z-score: -0.877

How did the screen score PI16 (peptidase inhibitor 16) #3?
total luciferase, z-score: 0.409

With TICAM1 (TIR domain containing adaptor molecule 1) #1, how do the results read?
total luciferase, z-score: -0.794

For TICAM1 (TIR domain containing adaptor molecule 1) #2, what was measured?
total luciferase, z-score: -2.04

For TICAM1 (TIR domain containing adaptor molecule 1) #3, what does the deposit list?
total luciferase, z-score: 3.06 (active)

With OR51B5 (olfactory receptor family 51 subfamily B member 5) #1, what does the deposit list?
total luciferase, z-score: 2.08

With OR51B5 (olfactory receptor family 51 subfamily B member 5) #2, what was measured?
total luciferase, z-score: 0.168

For OR51B5 (olfactory receptor family 51 subfamily B member 5) #3, what does the deposit list?
total luciferase, z-score: 0.24

What is on record for HNRNPA1 (heterogeneous nuclear ribonucleoprotein A1) #1?
total luciferase, z-score: -0.469

With HNRNPA1 (heterogeneous nuclear ribonucleoprotein A1) #2, how do the results read?
total luciferase, z-score: 2.85

For HNRNPA1 (heterogeneous nuclear ribonucleoprotein A1) #3, what was measured?
total luciferase, z-score: -1.12

Hits, of those listed so far:
TICAM1 (TIR domain containing adaptor molecule 1) #3 → total luciferase, z-score = 3.06 (active)
